Data published in the supplement of paper PMC12823440, “Inhibitors supercharge kinase turnover through native proteolytic circuits” (Nature, 2025).
The other results are listed elsewhere or left out. Hit calls seldom repeat between salt and free forms of one compound.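 In K562 cells expressing nanoluciferase-fused kinases, luminescence was recorded at 4 h intervals between 2 and 18 h, normalized as percent of control with DMSO at 100% and a positive control at 0%. A significant (2 sigma) signal drop marks a time point as decreased. The authors' rule for a hit is not shown and takes in more than the number of time points.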

Amino acid sequences for entries named in this document (tags omitted). A change or cut given only in a name is not applied to a line headed by its entry.
UniProt Q15208: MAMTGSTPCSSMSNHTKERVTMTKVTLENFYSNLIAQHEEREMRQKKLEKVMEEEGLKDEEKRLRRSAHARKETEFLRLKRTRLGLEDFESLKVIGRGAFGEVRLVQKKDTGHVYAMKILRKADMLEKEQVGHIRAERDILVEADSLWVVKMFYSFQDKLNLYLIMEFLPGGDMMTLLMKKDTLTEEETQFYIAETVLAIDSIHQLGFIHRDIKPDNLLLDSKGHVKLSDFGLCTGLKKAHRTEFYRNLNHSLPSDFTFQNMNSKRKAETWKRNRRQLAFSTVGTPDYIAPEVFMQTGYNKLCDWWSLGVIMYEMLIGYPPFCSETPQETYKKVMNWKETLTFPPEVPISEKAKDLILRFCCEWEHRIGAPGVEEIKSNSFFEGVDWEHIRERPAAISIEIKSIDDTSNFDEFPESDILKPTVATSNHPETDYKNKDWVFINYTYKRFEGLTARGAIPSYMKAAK
UniProt P42680: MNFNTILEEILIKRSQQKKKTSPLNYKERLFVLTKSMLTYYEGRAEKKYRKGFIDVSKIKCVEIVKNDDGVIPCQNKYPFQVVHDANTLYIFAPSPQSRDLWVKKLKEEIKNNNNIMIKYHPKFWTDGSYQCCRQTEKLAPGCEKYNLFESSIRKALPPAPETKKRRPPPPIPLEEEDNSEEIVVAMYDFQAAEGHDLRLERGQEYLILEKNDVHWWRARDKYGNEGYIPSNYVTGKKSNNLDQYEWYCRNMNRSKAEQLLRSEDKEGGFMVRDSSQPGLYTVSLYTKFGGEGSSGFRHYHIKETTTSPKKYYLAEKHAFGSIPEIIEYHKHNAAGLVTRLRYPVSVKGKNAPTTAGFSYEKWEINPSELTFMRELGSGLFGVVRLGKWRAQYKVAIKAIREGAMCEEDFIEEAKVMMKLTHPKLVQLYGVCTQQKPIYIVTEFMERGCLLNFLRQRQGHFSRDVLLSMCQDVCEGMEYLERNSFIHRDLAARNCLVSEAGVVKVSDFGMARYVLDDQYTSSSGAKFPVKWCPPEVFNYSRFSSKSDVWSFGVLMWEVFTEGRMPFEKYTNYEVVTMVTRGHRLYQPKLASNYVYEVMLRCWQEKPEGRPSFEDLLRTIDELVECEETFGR
UniProt P29597: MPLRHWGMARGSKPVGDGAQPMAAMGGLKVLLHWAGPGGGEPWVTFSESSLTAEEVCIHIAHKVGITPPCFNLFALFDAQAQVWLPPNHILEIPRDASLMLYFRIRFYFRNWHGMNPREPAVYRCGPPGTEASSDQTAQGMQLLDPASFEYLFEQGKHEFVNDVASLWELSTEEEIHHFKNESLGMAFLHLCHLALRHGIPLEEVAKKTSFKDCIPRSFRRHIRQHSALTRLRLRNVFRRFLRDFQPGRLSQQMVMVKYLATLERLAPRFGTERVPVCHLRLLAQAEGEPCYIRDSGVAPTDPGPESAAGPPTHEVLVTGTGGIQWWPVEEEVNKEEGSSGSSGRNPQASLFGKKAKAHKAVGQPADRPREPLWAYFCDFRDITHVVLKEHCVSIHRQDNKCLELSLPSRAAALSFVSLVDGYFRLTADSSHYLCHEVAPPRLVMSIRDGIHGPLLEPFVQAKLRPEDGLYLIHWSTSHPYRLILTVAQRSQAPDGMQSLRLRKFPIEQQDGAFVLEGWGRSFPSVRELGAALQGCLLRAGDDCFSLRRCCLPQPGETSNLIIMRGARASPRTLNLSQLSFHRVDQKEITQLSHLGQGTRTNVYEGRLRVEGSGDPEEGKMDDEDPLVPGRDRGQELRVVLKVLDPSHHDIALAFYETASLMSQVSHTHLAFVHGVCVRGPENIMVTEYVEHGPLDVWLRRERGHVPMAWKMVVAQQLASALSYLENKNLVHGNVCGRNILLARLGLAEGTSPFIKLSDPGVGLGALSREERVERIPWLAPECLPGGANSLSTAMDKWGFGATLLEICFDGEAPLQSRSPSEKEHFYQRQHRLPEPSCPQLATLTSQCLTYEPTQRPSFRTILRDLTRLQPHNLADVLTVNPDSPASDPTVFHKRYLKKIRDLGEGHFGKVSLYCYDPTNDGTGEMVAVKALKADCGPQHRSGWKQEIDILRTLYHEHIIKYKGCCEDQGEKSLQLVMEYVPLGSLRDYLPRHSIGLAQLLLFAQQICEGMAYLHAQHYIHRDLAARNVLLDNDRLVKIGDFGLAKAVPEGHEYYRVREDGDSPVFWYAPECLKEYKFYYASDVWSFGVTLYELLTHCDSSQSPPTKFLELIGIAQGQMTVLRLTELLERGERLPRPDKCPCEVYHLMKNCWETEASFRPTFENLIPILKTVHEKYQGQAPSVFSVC
UniProt Q6PHR2: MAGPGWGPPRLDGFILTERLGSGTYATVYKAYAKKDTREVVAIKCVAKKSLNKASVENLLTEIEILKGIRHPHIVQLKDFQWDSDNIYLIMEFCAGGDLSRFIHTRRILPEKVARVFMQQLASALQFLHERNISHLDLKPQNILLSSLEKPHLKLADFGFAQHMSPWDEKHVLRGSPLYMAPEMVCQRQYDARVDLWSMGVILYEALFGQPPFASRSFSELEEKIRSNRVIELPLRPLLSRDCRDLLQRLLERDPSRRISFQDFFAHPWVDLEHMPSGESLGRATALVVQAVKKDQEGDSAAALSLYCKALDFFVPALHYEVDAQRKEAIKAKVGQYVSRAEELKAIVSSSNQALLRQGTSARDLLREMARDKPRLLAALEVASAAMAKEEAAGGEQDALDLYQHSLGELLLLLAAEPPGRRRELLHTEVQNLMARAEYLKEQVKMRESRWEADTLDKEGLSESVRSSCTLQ
UniProt P07947, whole entry, looked up: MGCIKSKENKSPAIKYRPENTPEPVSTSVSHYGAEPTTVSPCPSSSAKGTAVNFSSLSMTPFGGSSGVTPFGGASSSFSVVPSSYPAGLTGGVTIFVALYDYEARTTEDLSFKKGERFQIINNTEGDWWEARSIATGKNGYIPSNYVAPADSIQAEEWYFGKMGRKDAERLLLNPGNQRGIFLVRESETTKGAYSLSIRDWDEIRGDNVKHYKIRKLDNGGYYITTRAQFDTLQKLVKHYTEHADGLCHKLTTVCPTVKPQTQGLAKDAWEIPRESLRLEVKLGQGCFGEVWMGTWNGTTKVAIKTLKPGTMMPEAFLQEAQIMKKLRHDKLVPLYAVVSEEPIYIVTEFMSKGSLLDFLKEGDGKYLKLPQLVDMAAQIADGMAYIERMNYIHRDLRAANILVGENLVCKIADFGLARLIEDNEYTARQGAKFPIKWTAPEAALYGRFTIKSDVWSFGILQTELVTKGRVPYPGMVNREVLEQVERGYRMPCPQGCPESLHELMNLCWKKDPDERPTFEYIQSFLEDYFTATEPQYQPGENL
UniProt P43403: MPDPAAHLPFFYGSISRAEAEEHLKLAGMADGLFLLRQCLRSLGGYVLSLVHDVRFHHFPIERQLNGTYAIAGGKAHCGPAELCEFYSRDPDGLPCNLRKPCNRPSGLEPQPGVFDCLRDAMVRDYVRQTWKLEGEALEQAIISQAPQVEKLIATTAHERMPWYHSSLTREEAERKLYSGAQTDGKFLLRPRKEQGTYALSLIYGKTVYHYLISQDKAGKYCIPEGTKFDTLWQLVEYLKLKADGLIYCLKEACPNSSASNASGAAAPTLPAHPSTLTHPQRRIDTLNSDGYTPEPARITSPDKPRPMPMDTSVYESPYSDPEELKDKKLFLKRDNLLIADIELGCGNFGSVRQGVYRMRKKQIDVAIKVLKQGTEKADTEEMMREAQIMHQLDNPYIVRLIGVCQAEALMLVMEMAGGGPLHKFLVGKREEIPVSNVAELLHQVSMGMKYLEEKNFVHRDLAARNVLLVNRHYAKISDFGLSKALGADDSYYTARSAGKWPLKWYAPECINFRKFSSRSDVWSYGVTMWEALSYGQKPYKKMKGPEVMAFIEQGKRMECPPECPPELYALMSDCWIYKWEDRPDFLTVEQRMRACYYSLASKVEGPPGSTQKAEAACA
UniProt P00519, whole entry: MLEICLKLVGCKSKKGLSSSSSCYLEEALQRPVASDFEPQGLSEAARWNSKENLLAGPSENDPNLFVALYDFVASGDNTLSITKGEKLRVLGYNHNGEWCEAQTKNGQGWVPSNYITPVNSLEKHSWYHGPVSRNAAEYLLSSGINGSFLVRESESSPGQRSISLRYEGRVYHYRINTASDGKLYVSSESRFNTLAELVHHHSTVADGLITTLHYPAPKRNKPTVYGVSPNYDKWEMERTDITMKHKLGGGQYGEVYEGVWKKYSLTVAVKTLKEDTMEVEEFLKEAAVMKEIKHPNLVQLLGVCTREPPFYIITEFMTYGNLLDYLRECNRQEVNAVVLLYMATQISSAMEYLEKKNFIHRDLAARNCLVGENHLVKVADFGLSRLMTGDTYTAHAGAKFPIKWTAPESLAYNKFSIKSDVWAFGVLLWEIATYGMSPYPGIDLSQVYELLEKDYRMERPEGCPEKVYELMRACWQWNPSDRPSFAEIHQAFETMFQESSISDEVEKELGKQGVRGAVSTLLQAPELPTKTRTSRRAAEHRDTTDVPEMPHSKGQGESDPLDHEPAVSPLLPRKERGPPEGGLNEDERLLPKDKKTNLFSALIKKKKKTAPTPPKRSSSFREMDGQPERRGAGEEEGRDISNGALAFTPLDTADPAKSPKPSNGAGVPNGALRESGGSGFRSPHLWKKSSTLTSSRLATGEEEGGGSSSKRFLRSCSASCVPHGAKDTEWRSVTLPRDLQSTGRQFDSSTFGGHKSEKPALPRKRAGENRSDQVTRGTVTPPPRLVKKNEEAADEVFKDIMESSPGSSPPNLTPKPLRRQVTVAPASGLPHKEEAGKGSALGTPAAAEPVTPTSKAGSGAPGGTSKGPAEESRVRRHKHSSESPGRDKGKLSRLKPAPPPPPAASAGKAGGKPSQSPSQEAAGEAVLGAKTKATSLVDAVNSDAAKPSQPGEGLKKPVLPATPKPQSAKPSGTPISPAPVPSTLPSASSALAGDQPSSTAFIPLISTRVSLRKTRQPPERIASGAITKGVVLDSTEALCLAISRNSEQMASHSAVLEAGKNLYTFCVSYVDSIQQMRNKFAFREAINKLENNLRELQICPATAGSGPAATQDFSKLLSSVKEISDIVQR
UniProt P31749: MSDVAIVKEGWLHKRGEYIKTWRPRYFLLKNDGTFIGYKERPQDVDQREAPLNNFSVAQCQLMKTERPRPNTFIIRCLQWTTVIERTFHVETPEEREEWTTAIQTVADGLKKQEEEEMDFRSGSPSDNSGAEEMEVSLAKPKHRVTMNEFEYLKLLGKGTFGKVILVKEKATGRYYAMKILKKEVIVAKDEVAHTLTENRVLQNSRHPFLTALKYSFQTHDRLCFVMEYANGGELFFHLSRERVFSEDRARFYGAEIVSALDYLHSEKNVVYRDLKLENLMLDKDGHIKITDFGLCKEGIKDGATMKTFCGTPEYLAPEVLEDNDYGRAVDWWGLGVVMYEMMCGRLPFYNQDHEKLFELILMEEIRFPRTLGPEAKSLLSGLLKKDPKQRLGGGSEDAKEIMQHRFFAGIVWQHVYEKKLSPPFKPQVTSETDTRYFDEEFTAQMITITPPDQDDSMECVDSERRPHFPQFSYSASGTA

Assays:
Details in all cases: K562; 2-18 h
STK38 = STK38 (UniProt Q15208); test: kinase-Nluc reporter destabilization hit call (1 = scored as downregulated) (binary); higher = compound decreases kinase abundance
SYK = SYK (UniProt P43405); test: as above
TEC = TEC (UniProt P42680); test: as above
TYK2 = TYK2 (UniProt P29597); test: as above
ULK3 = ULK3 (UniProt Q6PHR2); test: as above
YES1 = YES1 (UniProt P07947); test: as above
ZAK = ZAK (UniProt Q9NYL2); test: as above
ZAP70 = ZAP70 (UniProt P43403); test: as above
ABL1 = ABL1 (UniProt P00519); test: number of time points (of 5) at which kinase-Nluc abundance scored as decreased, DMSO-normalised (count); higher = more persistent destabilization
AKT1 = AKT1 (UniProt P31749); test: as above

CN1CCN(Cc2ccc(-c3cnc4[nH]cc(-c5ccc6[nH]ccc6c5)c4c3)cc2)CC1 (2.5 µM)
inactive: kinase-Nluc reporter destabilization hit call (STK38) 0 | kinase-Nluc reporter destabilization hit call (SYK) 0 | kinase-Nluc reporter destabilization hit call (TEC) 0 | kinase-Nluc reporter destabilization hit call (TYK2) 0 | kinase-Nluc reporter destabilization hit call (ULK3) 0 | kinase-Nluc reporter destabilization hit call (YES1) 0 | kinase-Nluc reporter destabilization hit call (ZAK) 0 | kinase-Nluc reporter destabilization hit call (ZAP70) 0
0: number of time points (ABL1) | number of time points (AKT1)

CN1C(=O)N[C@@H](Cc2c[nH]c3c(Cl)cccc23)C1=O [Necrostatin 2 (S enantiomer)] (10 µM)
0: number of time points (ABL1) | number of time points (AKT1)
inactive: kinase-Nluc reporter destabilization hit call (STK38) 0 | kinase-Nluc reporter destabilization hit call (SYK) 0 | kinase-Nluc reporter destabilization hit call (TEC) 0 | kinase-Nluc reporter destabilization hit call (TYK2) 0 | kinase-Nluc reporter destabilization hit call (ULK3) 0 | kinase-Nluc reporter destabilization hit call (YES1) 0 | kinase-Nluc reporter destabilization hit call (ZAK) 0 | kinase-Nluc reporter destabilization hit call (ZAP70) 0

CCCCNc1ncc2c(-c3ccc(F)cc3)nn(CC3CCC(N)CC3)c2n1 (stereo not given) (2.5 µM)
inactive: kinase-Nluc reporter destabilization hit call (STK38) 0 | kinase-Nluc reporter destabilization hit call (SYK) 0 | kinase-Nluc reporter destabilization hit call (TEC) 0 | kinase-Nluc reporter destabilization hit call (TYK2) 0 | kinase-Nluc reporter destabilization hit call (ULK3) 0 | kinase-Nluc reporter destabilization hit call (YES1) 0 | kinase-Nluc reporter destabilization hit call (ZAK) 0 | kinase-Nluc reporter destabilization hit call (ZAP70) 0
0: number of time points (ABL1) | number of time points (AKT1)

CN1C(=O)[C@@H](NC(=O)c2cc(Cc3ccccc3)on2)COc2ccccc21 (10 µM)
inactive: kinase-Nluc reporter destabilization hit call (STK38) 0 | kinase-Nluc reporter destabilization hit call (SYK) 0 | kinase-Nluc reporter destabilization hit call (TEC) 0 | kinase-Nluc reporter destabilization hit call (TYK2) 0 | kinase-Nluc reporter destabilization hit call (ULK3) 0 | kinase-Nluc reporter destabilization hit call (YES1) 0 | kinase-Nluc reporter destabilization hit call (ZAK) 0 | kinase-Nluc reporter destabilization hit call (ZAP70) 0
0: number of time points (ABL1) | number of time points (AKT1)

COc1ccc2nc3ccc(OC)cc3c(SCCCN)c2c1 (10 µM)
4: number of time points (ABL1)
inactive: kinase-Nluc reporter destabilization hit call (STK38) 0 | kinase-Nluc reporter destabilization hit call (SYK) 0 | kinase-Nluc reporter destabilization hit call (TEC) 0 | kinase-Nluc reporter destabilization hit call (TYK2) 0 | kinase-Nluc reporter destabilization hit call (ULK3) 0 | kinase-Nluc reporter destabilization hit call (YES1) 0 | kinase-Nluc reporter destabilization hit call (ZAK) 0 | kinase-Nluc reporter destabilization hit call (ZAP70) 0
0: number of time points (AKT1)

CCCS(=O)(=O)N[C@H]1C[C@@H](N(C)c2ncnc3[nH]ccc23)C1 [Abrocitinib] (10 µM)
inactive: kinase-Nluc reporter destabilization hit call (STK38) 0 | kinase-Nluc reporter destabilization hit call (SYK) 0 | kinase-Nluc reporter destabilization hit call (TEC) 0 | kinase-Nluc reporter destabilization hit call (TYK2) 0 | kinase-Nluc reporter destabilization hit call (ULK3) 0 | kinase-Nluc reporter destabilization hit call (YES1) 0 | kinase-Nluc reporter destabilization hit call (ZAK) 0 | kinase-Nluc reporter destabilization hit call (ZAP70) 0
0: number of time points (ABL1) | number of time points (AKT1)

CNC(=O)CN1CCC(Oc2cc3c(Nc4cccc(Cl)c4F)ncnc3cc2OC)CC1 [Sapitinib] (10 µM)
inactive: kinase-Nluc reporter destabilization hit call (STK38) 0 | kinase-Nluc reporter destabilization hit call (SYK) 0 | kinase-Nluc reporter destabilization hit call (TEC) 0 | kinase-Nluc reporter destabilization hit call (TYK2) 0 | kinase-Nluc reporter destabilization hit call (ULK3) 0 | kinase-Nluc reporter destabilization hit call (YES1) 0 | kinase-Nluc reporter destabilization hit call (ZAK) 0 | kinase-Nluc reporter destabilization hit call (ZAP70) 0
0: number of time points (ABL1) | number of time points (AKT1)

CCc1c(C(=O)NNC(=O)[C@H](O)c2cc(F)cc(F)c2)ccc(O)c1C (10 µM)
inactive: kinase-Nluc reporter destabilization hit call (STK38) 0 | kinase-Nluc reporter destabilization hit call (SYK) 0 | kinase-Nluc reporter destabilization hit call (TEC) 0 | kinase-Nluc reporter destabilization hit call (TYK2) 0 | kinase-Nluc reporter destabilization hit call (ULK3) 0 | kinase-Nluc reporter destabilization hit call (YES1) 0 | kinase-Nluc reporter destabilization hit call (ZAK) 0 | kinase-Nluc reporter destabilization hit call (ZAP70) 0
0: number of time points (ABL1) | number of time points (AKT1)

O=C1C=CC2=C3c4cc(O)c(O)cc4CC3(O)COC2=C1O (stereo not given) [Hematein] (10 µM)
0: number of time points (ABL1) | number of time points (AKT1)
inactive: kinase-Nluc reporter destabilization hit call (STK38) 0 | kinase-Nluc reporter destabilization hit call (SYK) 0 | kinase-Nluc reporter destabilization hit call (TEC) 0 | kinase-Nluc reporter destabilization hit call (TYK2) 0 | kinase-Nluc reporter destabilization hit call (ULK3) 0 | kinase-Nluc reporter destabilization hit call (YES1) 0 | kinase-Nluc reporter destabilization hit call (ZAK) 0 | kinase-Nluc reporter destabilization hit call (ZAP70) 0

Nc1ccc(Sc2nc3ccccc3s2)c(Cl)c1 [KRAS inhibitor-9] (10 µM)
inactive: kinase-Nluc reporter destabilization hit call (STK38) 0 | kinase-Nluc reporter destabilization hit call (SYK) 0 | kinase-Nluc reporter destabilization hit call (TEC) 0 | kinase-Nluc reporter destabilization hit call (TYK2) 0 | kinase-Nluc reporter destabilization hit call (ULK3) 0 | kinase-Nluc reporter destabilization hit call (YES1) 0 | kinase-Nluc reporter destabilization hit call (ZAK) 0 | kinase-Nluc reporter destabilization hit call (ZAP70) 0
0: number of time points (ABL1) | number of time points (AKT1)

Ordered by molecular weight (largest number first): part of the list above.
CNC(=O)CN1CCC(Oc2cc3c(Nc4cccc(Cl)c4F)ncnc3cc2OC)CC1 [Sapitinib] (10 µM)
inactive: kinase-Nluc reporter destabilization hit call (STK38) 0 | kinase-Nluc reporter destabilization hit call (SYK) 0 | kinase-Nluc reporter destabilization hit call (TEC) 0 | kinase-Nluc reporter destabilization hit call (TYK2) 0 | kinase-Nluc reporter destabilization hit call (ULK3) 0 | kinase-Nluc reporter destabilization hit call (YES1) 0 | kinase-Nluc reporter destabilization hit call (ZAK) 0 | kinase-Nluc reporter destabilization hit call (ZAP70) 0
0: number of time points (ABL1) | number of time points (AKT1)

CCCS(=O)(=O)N[C@H]1C[C@@H](N(C)c2ncnc3[nH]ccc23)C1 [Abrocitinib] (10 µM)
inactive: kinase-Nluc reporter destabilization hit call (STK38) 0 | kinase-Nluc reporter destabilization hit call (SYK) 0 | kinase-Nluc reporter destabilization hit call (TEC) 0 | kinase-Nluc reporter destabilization hit call (TYK2) 0 | kinase-Nluc reporter destabilization hit call (ULK3) 0 | kinase-Nluc reporter destabilization hit call (YES1) 0 | kinase-Nluc reporter destabilization hit call (ZAK) 0 | kinase-Nluc reporter destabilization hit call (ZAP70) 0
0: number of time points (ABL1) | number of time points (AKT1)

Nc1ccc(Sc2nc3ccccc3s2)c(Cl)c1 [KRAS inhibitor-9] (10 µM)
inactive: kinase-Nluc reporter destabilization hit call (STK38) 0 | kinase-Nluc reporter destabilization hit call (SYK) 0 | kinase-Nluc reporter destabilization hit call (TEC) 0 | kinase-Nluc reporter destabilization hit call (TYK2) 0 | kinase-Nluc reporter destabilization hit call (ULK3) 0 | kinase-Nluc reporter destabilization hit call (YES1) 0 | kinase-Nluc reporter destabilization hit call (ZAK) 0 | kinase-Nluc reporter destabilization hit call (ZAP70) 0
0: number of time points (ABL1) | number of time points (AKT1)

(further entries)

CC(C)n1cnc2c(Nc3cccc(Cl)c3)nc(N[C@H]3CCCC[C@@H]3N)nc21 (2.5 µM)
0: number of time points (ABL1) | number of time points (AKT1)
inactive: kinase-Nluc reporter destabilization hit call (STK38) 0 | kinase-Nluc reporter destabilization hit call (SYK) 0 | kinase-Nluc reporter destabilization hit call (TEC) 0 | kinase-Nluc reporter destabilization hit call (TYK2) 0 | kinase-Nluc reporter destabilization hit call (ULK3) 0 | kinase-Nluc reporter destabilization hit call (YES1) 0 | kinase-Nluc reporter destabilization hit call (ZAK) 0 | kinase-Nluc reporter destabilization hit call (ZAP70) 0

O=[N+]([O-])c1ccc(-c2nc(-c3ccc(F)cc3)c(-c3ccncc3)[nH]2)cc1 (10 µM)
inactive: kinase-Nluc reporter destabilization hit call (STK38) 0 | kinase-Nluc reporter destabilization hit call (SYK) 0 | kinase-Nluc reporter destabilization hit call (TEC) 0 | kinase-Nluc reporter destabilization hit call (ULK3) 0 | kinase-Nluc reporter destabilization hit call (YES1) 0 | kinase-Nluc reporter destabilization hit call (ZAK) 0 | kinase-Nluc reporter destabilization hit call (ZAP70) 0
active: kinase-Nluc reporter destabilization hit call (TYK2) 1
0: number of time points (ABL1) | number of time points (AKT1)

O=S(=O)(c1ccc(O)cc1O)N1Cc2cc(O)cc(O)c2C1 (10 µM)
0: number of time points (ABL1) | number of time points (AKT1)
inactive: kinase-Nluc reporter destabilization hit call (STK38) 0 | kinase-Nluc reporter destabilization hit call (SYK) 0 | kinase-Nluc reporter destabilization hit call (TEC) 0 | kinase-Nluc reporter destabilization hit call (TYK2) 0 | kinase-Nluc reporter destabilization hit call (ULK3) 0 | kinase-Nluc reporter destabilization hit call (YES1) 0 | kinase-Nluc reporter destabilization hit call (ZAK) 0 | kinase-Nluc reporter destabilization hit call (ZAP70) 0

O=C(COc1ccc(Cl)cc1)NC1CCC(NC(=O)COc2ccc(Cl)cc2)CC1 (stereo not drawn) [ISRIB (trans-isomer)] (10 µM)
0: number of time points (ABL1) | number of time points (AKT1)
inactive: kinase-Nluc reporter destabilization hit call (STK38) 0 | kinase-Nluc reporter destabilization hit call (SYK) 0 | kinase-Nluc reporter destabilization hit call (TEC) 0 | kinase-Nluc reporter destabilization hit call (TYK2) 0 | kinase-Nluc reporter destabilization hit call (ULK3) 0 | kinase-Nluc reporter destabilization hit call (YES1) 0 | kinase-Nluc reporter destabilization hit call (ZAK) 0 | kinase-Nluc reporter destabilization hit call (ZAP70) 0

CNc1cc2c(Nc3cccc(Br)c3)ncnc2cn1 (10 µM)
0: number of time points (ABL1) | number of time points (AKT1)
inactive: kinase-Nluc reporter destabilization hit call (STK38) 0 | kinase-Nluc reporter destabilization hit call (SYK) 0 | kinase-Nluc reporter destabilization hit call (TEC) 0 | kinase-Nluc reporter destabilization hit call (TYK2) 0 | kinase-Nluc reporter destabilization hit call (ULK3) 0 | kinase-Nluc reporter destabilization hit call (YES1) 0 | kinase-Nluc reporter destabilization hit call (ZAK) 0 | kinase-Nluc reporter destabilization hit call (ZAP70) 0

CO/N=C1/C(c2c(O)[nH]c3cc(Cl)c(Cl)cc23)=Nc2ccccc21 (10 µM)
0: number of time points (ABL1) | number of time points (AKT1)
inactive: kinase-Nluc reporter destabilization hit call (STK38) 0 | kinase-Nluc reporter destabilization hit call (SYK) 0 | kinase-Nluc reporter destabilization hit call (TEC) 0 | kinase-Nluc reporter destabilization hit call (TYK2) 0 | kinase-Nluc reporter destabilization hit call (ULK3) 0 | kinase-Nluc reporter destabilization hit call (YES1) 0 | kinase-Nluc reporter destabilization hit call (ZAK) 0 | kinase-Nluc reporter destabilization hit call (ZAP70) 0
